Reference: PMC6600395

Assays:
[1] = target: p53CT (C-terminal segment) (human) (UniProt P04637); experiment: EMSA; details: weaker than non-B substrates, 50 ng pBSK/SmaI, EMSA: 5 mM Tris-HCl pH 7.6, 0.5 mM EDTA, 0.5 mM DTT, 0.01% Triton X-100, 50 mM KCl, 15 min on ice (agarose 4 °C), pBSK/SmaI competitor in PAGE EMSA, recombinant protein, residues 320-393
[2] = target: p53 (wild type, full length) (human) (UniProt P04637); experiment: EMSA; details: EMSA: 5 mM Tris-HCl pH 7.6, 0.5 mM EDTA, 0.5 mM DTT, 0.01% Triton X-100, 50 mM KCl, 15 min on ice (agarose 4 °C), pBSK/SmaI competitor in PAGE EMSA, recombinant protein, residues 1-393, folded or branched DNA
[3] = target: p53 (wild type, full length) (human) (UniProt P04637); experiment: ELISA; details: Kd only in figure, ELISA: same without EDTA, 4 °C, 20 min, recombinant protein, residues 1-393, folded or branched DNA
[4] = target: p53CT (C-terminal segment) (human) (UniProt P04637); experiment: ELISA; details: 2 ng/well competitor, Kd only in figure, ELISA: same without EDTA, 4 °C, 20 min, recombinant protein, residues 320-393

“ACCAGAGCTGATGGTATCCTAAGTTGACGACCCCGAGGGTGCCGCAAGGA (double strand) [NON]”: binds more weakly ([1]; label: 32P).

“GACGGTATCGATAAGAGACATGCCTAGACATGCCTCTTGATATCGAATTC (double strand) [CON (p53CON)]”: binds more weakly ([1]; label: 32P (EMSA), biotin (ELISA)).

“GGGGCCTTAGGTAAAAAAAAAAAAAAAAAAAAAAAAAAAAAAAAAAATGGTACCGCGG / CCGCGGTACCATTACCTAAGGCCCCAAC [ANB]”: binds more weakly ([2]; weaker than TNB, 75 ng pBSK/SmaI competitor); binds more weakly ([3]; lower affinity than TNB).

“GGGGCCTTAGGTAAAAAAATACAAAAAAAAAAAAAAAAGAAGAAGAAGAAGAAGAAAATAAAGAAAAATGGTACCGCGG / CCGCGGTACCATTACCTAAGGCCCCAAC [FXN-ANB]”: binds more weakly ([2]; weaker than TTCNB and FXN-TNB, 50 ng pBSK/SmaI, label: 5'-32P on Lock-F).

“GGGGCCTTAGGTACAGCAGCAGCAGCAGCAGCAGCAGCAGCAGCAGATGGTACCGCGG / CCGCGGTACCATTACCTAAGGCCCCAAC [CAGNB]”: binds more weakly ([2]; weaker than CTGNB, 75 ng pBSK/SmaI competitor, label: 5'-32P on Lock-F).

“GGGGCCTTAGGTACTGCTGCTGCTGCTGCTGCTGCTGCTGCTGCTGATGGTACCGCGG / CCGCGGTACCATTACCTAAGGCCCCAAC [CTGNB]”: binds ([4]; folded or branched DNA).

“GGGGCCTTAGGTAGAAGAAGAAGAAGAAGAAGAAGAAGAAGAAGAAATGGTACCGCGG / CCGCGGTACCATTACCTAAGGCCCCAAC [GAANB]”: binds more weakly ([2]; weaker than TTCNB, 75 ng pBSK/SmaI competitor); binds more weakly ([3]; lower affinity than TTCNB); binds more weakly ([4]; lower than TTCNB, folded or branched …).

“GGGGCCTTAGGTATTTTTTTTTTTTTTTTTTTTTTTTTTTTTTTTTATGGTACCGCGG / CCGCGGTACCATTACCTAAGGCCCCAAC [TNB]”: binds ([4]; folded or branched DNA).

Weaker means in comparison with the reference protein, sequence or condition of that experiment. For some assays here: Construct, isoform or probe ends are uncertain for at least one entry. For some assays here: At least one verdict was read from the data and is not stated in words by the source.
